From the supplement of paper PMC10849652
This is one part of the list. Residues, ends and D or L forms follow the SMILES beside them. *: point of attachment. Cbz = O=C(OCc1ccccc1)*

By UniProt entry, the sequences of proteins in these tests, tags left out. Where a name states a change or a piece, a line headed by the entry shows the natural chain unless it says otherwise.
UniProt O00635: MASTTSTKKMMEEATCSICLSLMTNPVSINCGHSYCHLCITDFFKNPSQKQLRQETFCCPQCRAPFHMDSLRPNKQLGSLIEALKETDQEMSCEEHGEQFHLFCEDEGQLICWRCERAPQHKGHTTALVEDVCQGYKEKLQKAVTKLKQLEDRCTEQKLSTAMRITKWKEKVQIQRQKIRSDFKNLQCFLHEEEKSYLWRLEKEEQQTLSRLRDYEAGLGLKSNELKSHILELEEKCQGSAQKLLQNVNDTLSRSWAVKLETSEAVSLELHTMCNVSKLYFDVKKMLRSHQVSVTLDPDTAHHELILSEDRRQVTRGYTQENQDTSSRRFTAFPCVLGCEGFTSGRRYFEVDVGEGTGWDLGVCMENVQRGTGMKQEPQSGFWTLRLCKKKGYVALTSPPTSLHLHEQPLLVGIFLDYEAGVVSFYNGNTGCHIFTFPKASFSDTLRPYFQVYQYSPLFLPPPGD
UniProt Q8NCE0: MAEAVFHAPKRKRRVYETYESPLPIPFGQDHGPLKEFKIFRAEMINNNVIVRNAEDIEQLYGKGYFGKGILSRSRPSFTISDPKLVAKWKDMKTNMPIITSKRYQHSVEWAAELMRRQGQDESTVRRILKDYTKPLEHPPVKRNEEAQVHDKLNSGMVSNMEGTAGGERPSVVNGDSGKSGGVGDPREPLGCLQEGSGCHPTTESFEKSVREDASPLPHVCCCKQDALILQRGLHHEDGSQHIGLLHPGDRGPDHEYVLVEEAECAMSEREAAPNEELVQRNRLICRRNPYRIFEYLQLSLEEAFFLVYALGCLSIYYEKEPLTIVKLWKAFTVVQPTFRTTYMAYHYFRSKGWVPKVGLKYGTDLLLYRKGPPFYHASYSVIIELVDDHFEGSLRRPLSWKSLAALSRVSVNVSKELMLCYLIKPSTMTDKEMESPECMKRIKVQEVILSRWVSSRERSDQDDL
UniProt Q15642: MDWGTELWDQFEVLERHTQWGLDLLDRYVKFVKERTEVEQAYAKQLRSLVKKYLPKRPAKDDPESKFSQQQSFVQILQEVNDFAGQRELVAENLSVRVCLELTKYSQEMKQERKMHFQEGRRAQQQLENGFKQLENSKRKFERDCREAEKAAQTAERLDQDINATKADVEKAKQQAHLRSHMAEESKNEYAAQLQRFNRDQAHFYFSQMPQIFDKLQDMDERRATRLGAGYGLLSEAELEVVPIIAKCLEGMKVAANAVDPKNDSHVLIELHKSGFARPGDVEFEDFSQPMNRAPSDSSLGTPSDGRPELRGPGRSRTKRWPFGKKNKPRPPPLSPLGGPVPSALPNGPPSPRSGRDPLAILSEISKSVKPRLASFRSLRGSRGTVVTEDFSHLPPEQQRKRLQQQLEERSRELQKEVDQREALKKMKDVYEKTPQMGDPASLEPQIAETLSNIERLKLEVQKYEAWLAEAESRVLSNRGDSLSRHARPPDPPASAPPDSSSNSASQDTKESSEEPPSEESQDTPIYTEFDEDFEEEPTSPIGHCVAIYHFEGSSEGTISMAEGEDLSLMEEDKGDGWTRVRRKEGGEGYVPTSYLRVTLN
UniProt Q8TEL6: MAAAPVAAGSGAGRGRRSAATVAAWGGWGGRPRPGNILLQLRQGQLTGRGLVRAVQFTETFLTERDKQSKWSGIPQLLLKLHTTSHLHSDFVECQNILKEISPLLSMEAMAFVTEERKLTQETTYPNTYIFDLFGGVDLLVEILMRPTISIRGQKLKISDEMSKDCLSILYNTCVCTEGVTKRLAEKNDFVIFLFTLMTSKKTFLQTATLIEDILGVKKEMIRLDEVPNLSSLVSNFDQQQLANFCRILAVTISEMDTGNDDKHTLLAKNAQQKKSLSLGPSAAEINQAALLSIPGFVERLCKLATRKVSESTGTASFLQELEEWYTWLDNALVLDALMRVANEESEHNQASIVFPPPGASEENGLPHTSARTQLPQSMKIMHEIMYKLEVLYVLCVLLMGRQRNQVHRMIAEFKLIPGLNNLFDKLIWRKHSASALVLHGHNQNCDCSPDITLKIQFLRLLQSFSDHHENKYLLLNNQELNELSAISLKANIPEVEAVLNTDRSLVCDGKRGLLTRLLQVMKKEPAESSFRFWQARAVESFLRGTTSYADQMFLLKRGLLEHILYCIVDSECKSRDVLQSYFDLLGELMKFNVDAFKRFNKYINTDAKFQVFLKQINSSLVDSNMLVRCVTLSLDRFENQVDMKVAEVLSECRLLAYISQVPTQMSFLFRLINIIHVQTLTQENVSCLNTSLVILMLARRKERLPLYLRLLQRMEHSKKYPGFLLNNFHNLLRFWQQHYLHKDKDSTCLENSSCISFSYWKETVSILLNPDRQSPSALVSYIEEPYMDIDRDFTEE
UniProt P19474, whole entry, looked up: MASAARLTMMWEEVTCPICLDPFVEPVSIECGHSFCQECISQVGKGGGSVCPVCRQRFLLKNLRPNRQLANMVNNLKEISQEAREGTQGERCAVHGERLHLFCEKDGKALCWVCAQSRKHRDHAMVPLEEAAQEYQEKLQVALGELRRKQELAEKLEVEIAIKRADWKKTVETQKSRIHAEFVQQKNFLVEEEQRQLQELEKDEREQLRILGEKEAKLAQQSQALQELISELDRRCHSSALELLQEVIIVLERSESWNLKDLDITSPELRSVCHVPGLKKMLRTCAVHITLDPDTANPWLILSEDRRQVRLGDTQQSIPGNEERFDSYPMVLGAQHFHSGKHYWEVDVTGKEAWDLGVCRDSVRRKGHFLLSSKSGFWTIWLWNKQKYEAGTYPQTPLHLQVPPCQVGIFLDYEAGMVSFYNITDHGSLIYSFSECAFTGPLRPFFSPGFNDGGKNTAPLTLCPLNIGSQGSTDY
UniProt Q96DX7: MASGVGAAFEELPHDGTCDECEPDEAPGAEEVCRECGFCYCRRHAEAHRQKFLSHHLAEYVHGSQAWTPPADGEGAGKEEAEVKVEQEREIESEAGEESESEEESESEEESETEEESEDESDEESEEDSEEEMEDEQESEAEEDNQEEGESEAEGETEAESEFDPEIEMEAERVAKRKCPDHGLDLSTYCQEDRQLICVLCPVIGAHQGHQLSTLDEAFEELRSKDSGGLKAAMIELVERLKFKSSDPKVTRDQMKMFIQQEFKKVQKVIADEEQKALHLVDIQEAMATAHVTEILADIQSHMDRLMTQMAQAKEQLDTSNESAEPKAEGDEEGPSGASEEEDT
UniProt Q9UKE5: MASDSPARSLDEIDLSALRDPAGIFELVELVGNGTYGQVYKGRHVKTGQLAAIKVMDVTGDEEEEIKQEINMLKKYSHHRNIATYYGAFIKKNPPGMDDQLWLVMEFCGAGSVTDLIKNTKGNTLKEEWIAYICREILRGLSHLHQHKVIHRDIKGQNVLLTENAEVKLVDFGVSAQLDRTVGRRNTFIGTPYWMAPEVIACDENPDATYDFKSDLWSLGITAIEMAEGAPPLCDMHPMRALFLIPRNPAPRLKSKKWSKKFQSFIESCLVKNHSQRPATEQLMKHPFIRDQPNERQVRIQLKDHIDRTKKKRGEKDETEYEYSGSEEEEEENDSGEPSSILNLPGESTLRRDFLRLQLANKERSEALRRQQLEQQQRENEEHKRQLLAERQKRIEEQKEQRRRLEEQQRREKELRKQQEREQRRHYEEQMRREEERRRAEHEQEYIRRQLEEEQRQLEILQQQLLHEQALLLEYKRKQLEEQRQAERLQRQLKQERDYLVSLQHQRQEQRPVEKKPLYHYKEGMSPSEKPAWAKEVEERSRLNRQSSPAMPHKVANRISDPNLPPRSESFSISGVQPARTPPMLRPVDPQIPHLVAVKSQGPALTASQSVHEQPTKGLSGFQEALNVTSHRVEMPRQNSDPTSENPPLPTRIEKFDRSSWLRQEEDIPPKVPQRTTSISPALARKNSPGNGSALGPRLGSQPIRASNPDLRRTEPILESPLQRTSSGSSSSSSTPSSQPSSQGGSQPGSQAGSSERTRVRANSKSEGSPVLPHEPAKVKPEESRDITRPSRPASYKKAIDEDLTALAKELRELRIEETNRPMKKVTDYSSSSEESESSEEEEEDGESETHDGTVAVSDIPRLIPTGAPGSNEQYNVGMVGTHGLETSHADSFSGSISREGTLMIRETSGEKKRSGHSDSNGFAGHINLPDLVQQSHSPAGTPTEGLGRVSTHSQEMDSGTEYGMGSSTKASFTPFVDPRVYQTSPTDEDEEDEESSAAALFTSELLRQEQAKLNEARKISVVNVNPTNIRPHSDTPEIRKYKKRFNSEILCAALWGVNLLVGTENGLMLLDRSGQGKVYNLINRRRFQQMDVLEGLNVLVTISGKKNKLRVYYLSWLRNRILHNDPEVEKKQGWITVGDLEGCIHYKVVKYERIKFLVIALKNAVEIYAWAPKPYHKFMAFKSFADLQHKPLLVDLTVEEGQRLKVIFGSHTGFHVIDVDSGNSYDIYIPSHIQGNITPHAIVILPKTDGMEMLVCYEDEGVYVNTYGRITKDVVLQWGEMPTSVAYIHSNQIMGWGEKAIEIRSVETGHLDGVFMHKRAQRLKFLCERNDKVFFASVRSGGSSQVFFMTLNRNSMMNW
UniProt Q9Y2L5: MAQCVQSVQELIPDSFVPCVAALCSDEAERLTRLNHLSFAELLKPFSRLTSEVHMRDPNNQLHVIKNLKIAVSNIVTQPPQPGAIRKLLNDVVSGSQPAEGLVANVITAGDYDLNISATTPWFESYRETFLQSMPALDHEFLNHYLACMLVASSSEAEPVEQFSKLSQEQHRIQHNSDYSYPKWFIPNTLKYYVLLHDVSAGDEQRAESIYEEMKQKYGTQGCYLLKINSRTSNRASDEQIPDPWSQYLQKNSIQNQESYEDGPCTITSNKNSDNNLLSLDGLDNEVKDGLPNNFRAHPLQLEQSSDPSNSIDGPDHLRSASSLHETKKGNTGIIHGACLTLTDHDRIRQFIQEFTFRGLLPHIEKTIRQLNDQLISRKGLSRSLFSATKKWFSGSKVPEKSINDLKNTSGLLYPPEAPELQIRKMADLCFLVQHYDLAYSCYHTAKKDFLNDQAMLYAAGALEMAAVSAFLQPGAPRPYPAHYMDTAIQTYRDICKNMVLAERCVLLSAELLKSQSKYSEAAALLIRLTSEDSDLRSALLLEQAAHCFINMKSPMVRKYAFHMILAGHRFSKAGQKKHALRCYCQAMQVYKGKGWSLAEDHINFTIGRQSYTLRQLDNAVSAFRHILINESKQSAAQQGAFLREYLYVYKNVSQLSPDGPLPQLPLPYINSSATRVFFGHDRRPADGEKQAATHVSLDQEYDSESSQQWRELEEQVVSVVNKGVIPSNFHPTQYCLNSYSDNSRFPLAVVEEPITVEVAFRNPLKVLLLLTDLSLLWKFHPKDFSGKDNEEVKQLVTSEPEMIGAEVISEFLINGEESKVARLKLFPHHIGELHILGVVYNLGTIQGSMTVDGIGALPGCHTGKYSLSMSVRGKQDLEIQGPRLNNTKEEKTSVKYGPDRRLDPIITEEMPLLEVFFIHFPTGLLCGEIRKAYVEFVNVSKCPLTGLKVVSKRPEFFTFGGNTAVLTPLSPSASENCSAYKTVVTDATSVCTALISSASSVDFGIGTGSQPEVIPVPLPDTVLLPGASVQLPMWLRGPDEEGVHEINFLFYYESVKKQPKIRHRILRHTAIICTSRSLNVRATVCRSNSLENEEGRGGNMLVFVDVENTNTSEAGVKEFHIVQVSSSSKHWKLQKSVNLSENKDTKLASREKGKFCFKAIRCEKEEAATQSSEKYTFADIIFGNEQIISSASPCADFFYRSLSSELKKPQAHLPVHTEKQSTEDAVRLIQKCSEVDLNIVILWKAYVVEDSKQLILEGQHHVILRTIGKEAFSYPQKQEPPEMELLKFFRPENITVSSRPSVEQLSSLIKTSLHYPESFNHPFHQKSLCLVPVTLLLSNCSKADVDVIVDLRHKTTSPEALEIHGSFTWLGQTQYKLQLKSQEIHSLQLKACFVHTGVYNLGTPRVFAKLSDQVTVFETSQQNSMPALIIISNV
UniProt Q8IZ69: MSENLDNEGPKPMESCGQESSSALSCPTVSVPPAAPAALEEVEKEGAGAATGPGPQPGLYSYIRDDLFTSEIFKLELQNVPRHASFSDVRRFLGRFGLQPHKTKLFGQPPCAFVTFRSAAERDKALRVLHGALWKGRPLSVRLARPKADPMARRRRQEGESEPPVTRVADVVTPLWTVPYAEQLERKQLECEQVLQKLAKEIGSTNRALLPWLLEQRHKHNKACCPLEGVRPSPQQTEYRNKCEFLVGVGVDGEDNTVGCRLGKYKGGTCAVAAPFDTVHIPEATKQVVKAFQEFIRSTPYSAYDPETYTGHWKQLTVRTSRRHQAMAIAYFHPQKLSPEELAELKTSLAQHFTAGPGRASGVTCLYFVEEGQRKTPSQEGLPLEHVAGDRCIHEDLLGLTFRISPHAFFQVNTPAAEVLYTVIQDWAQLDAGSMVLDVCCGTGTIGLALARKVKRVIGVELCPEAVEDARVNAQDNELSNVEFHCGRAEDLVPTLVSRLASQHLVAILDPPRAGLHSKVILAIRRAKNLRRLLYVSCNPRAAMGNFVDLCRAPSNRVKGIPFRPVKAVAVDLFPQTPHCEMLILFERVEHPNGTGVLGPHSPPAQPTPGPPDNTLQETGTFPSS

How the values were obtained:
Test in all cases: log2 fold change, soluble protein after heating vs DMSO (PISA); higher = thermal stabilisation; K562 cells, 10 uM, 30 min; active = over 0.2 and 3.5 SD of the protein, either way, in both replicates (recomputed)
erlotinib = compound: C#Cc1cccc(Nc2ncnc3cc(OCCOC)c(OCCOC)cc23)c1 [erlotinib]
Method in brief: (§1)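 Aliquots of K562 cells (2×10^6 cells/mL) treated with 10 μM compound for 30 min were heated for 3 min over 48°C-58°C. After pooling and extraction in PBS with 0.5% NP-40 at 4°C, soluble protein from a 21,000xg, 90 min spin was quantified by TMTpro 16plex LC-MS/MS with channel sums equalised. Thermal stability is expressed against control samples, from duplicates, as a log2 fold change.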

[1] = compound: C/C(=N\NC(=O)C1=CC(=CC=C1)S(=O)(=O)N2CCOCC2)/C3=C(C=CC(=C3)Cl)O
Method in brief: as §1

[2] = compound: C1=CC(=C(C=C1Cl)C2=NC3=NC=CN=C3C(=N2)NC4=CC=NC=C4)F
Method in brief: as §1

[3] = compound: C1=CC(=CC=C1C2=NC3=C(N2)C=C(C=C3)C(=O)N)OC4=CC=C(C=C4)Cl
Method in brief: as §1

[4] = compound: C1=CC2=C(C=CC(=C2)/C=C\3/C(=O)NC(=NCC4=CC=CS4)S3)N=C1
Method in brief: as §1

[5] = compound: C1=CC2=NC=CN=C2C=C1/C=C/3\C(=O)NC(=O)S3
Method in brief: as §1

[6] = compound: C1=CC=C2C(=C1)C3=NNC4=CC=CC(=C43)C2=O
Method in brief: as §1

IRAK-1-4 Inhibitor I = compound: C1COCCN1CCN2C3=CC=CC=C3N=C2NC(=O)C4=CC(=CC=C4)[N+](=O)[O-] [IRAK-1-4 Inhibitor I]
Method in brief: as §1

ibrutinib = compound: C=CC(=O)N1CCC[C@@H](n2nc(-c3ccc(Oc4ccccc4)cc3)c3c(N)ncnc32)C1 [ibrutinib]
Method in brief: as §1

[7] = compound: CC(=O)c1cnc2ccc(-c3cc(Cl)c(O)c(Cl)c3)nc2c1N[C@H]1CC[C@H](CN(C)C)CC1
Method in brief: as §1

[8] = compound: CC(C)(O)CC(=O)NCCn1ccc2ncnc(Nc3ccc(Oc4cccc(C(F)(F)F)c4)c(Cl)c3)c21
Method in brief: as §1

[9] = compound: CC(C)C1=C2N=C(C=C(N2N=C1)NCC3=CC=CC=C3)NCCCCCCN
Method in brief: as §1

pinometostat = compound: CC(C)N(C[C@H]1O[C@@H](n2cnc3c(N)ncnc32)[C@H](O)[C@@H]1O)[C@H]1C[C@@H](CCc2nc3cc(C(C)(C)C)ccc3[nH]2)C1 [pinometostat]
Method in brief: as §1

[10] = compound: CC1=C(C(CC(=O)N1)C2=CC=C(C=C2)C(F)(F)F)C(=O)NC3=C(C=C4C(=C3)C=NN4)F
Method in brief: as §1

[11] = compound: C1=CC=C(C=C1)C2=NC(=C(N2)C3=CC=NC=C3)C4=CC(=C(C=C4)Cl)O
Method in brief: as §1

[12] = compound: C1CCN(C1)C(=O)NC2=CC=CC(=C2)NC3=NC=C(C(=N3)NCCC4=CN=CN4)Br
Method in brief: as §1

[13] = compound: C1CN(CCC1(CC2=CC=C(C=C2)Cl)N)C3=NC=NC4=C3C=CN4
Method in brief: as §1

ralimetinib = compound: CC(C)(C)Cn1c(N)nc2ccc(-c3[nH]c(C(C)(C)C)nc3-c3ccc(F)cc3)nc21 [ralimetinib]
Method in brief: as §1

[14] = compound: CC(C)C[C@@H](C=O)NC(=O)[C@H](CC(C)C)NC(=O)[C@H](CC(C)C)NC(=O)OCc1ccccc1
Method in brief: as §1

[15] = compound: CC1=C(C2=C(C=C1)C(=O)C3=CC=CC=C3N2CCCN)C
Method in brief: as §1

Target | log2 fold change (erlotinib) | log2 fold change [1] | log2 fold change [2] | log2 fold change [3] | log2 fold change [4] | log2 fold change [5] | log2 fold change [6] | log2 fold change (IRAK-1-4 Inhibitor I) | log2 fold change (ibrutinib) | log2 fold change [7] | log2 fold change [8] | log2 fold change [9] | log2 fold change (pinometostat) | log2 fold change [10] | log2 fold change [11] | log2 fold change [12] | log2 fold change [13] | log2 fold change (ralimetinib) | log2 fold change [14] | log2 fold change [15]
TRIM38 (UniProt O00635) | inactive: 0.126 | inactive: -0.068 | inactive: -0.053 | inactive: 0.027 | inactive: 0.108 | inactive: -0.072 | inactive: -0.143 | inactive: 0.037 | inactive: -0.016 | inactive: -0.089 | inactive: -0.02 | inactive: -0.072 | inactive: 0.037 | inactive: 0.079 |  |  |  |  |  | 
TSEN2 (UniProt Q8NCE0) | inactive: 0.08 | inactive: -0.001 | inactive: -0.016 | inactive: 0.029 | inactive: 0.041 | inactive: 0.098 | inactive: 0.023 | inactive: 0.073 | inactive: -0.022 | inactive: -0.116 | inactive: -0.127 | inactive: 0.033 | inactive: 0.004 |  | inactive: 0.023 | inactive: -0.04 | inactive: 0.061 | inactive: -0.034 | inactive: -0.001 | inactive: 0.027
TOE1 (UniProt Q96GM8) | inactive: -0.029 | inactive: -0.151 | inactive: -0.267 | inactive: -0.056 | inactive: 0.002 | inactive: 0.005 | inactive: -0.035 | inactive: -0.15 | inactive: -0.031 | inactive: 0.089 | inactive: 0.005 | inactive: 0.042 | inactive: 0.077 |  | inactive: -0.05 | inactive: -0.021 | inactive: -0.107 | inactive: 0.012 | inactive: 0.09 | inactive: -0.228
TRAPPC2L (UniProt Q9UL33) | inactive: 0.193 | inactive: 0.062 | inactive: -0.037 | inactive: -0.273 | inactive: -0.047 | inactive: 0.001 | inactive: -0.008 | inactive: -0.013 | inactive: 0.003 | inactive: -0.004 | inactive: -0.11 | inactive: -0.083 | inactive: 0.001 |  | inactive: -0.096 | inactive: -0.083 | inactive: -0.031 | inactive: -0.125 | inactive: 0.24 | inactive: 0.014
TRIP10 isoform 2 (UniProt Q15642) | inactive: -0.116 | inactive: -0.002 | inactive: 0.112 | inactive: 0.094 | inactive: -0.069 | inactive: 0.055 | inactive: 0.055 | inactive: 0.09 | inactive: -0.032 | inactive: -0.078 | inactive: 0.004 | inactive: 0.204 | inactive: -0.027 |  | inactive: 0.326 | inactive: -0.089 | inactive: 0.014 | inactive: 0.143 | inactive: -0.118 | inactive: -0.01
TRPC4AP (UniProt Q8TEL6) | inactive: -0.006 | inactive: -0.005 | inactive: -0.073 | inactive: 0.073 | inactive: -0.025 |  | inactive: 0.045 | inactive: -0.006 |  | inactive: 0.045 | inactive: -0.048 | inactive: -0.025 | inactive: 0.202 | inactive: 0.133 | inactive: 0.028 | inactive: 0.001 | inactive: -0.1 | inactive: -0.005 | inactive: 0.219 | inactive: -0.143
TRIM21 (UniProt P19474) | inactive: 0.041 | inactive: -0.047 |  | inactive: 0.214 | inactive: -0.076 | inactive: 0.111 | inactive: 0.213 |  | inactive: -0.238 | inactive: 0.044 |  | inactive: -0.147 |  | inactive: 0.106 |  | inactive: -0.038 | inactive: 0.013 |  |  | inactive: 0.129
TRIM44 (UniProt Q96DX7) | inactive: 0.022 | inactive: 0.1 |  | inactive: 0.025 | inactive: 0.028 | inactive: 0.087 | inactive: -0.037 | inactive: 0.031 | inactive: 0.018 | inactive: 0.067 |  | inactive: -0.06 | inactive: -0.01 |  | inactive: -0.061 | inactive: -0.023 | inactive: -0.014 | inactive: -0.094 | inactive: 0.061 | active: -0.327
TNIK isoform 3 (UniProt Q9UKE5) | inactive: -0.013 | inactive: -0.031 |  | inactive: 0.001 | inactive: -0.017 | inactive: 0.014 | inactive: -0.06 | inactive: 0.003 | inactive: -0.012 | inactive: -0.058 |  | inactive: -0.008 | inactive: -0.008 |  | inactive: 0.013 | inactive: -0.137 | inactive: 0.03 | inactive: 0.033 | inactive: 0.114 | inactive: 0.026
TRAPPC8 (UniProt Q9Y2L5) | inactive: 0.024 | inactive: 0.118 | inactive: -0.012 | inactive: 0.027 | inactive: 0.094 | inactive: -0.007 | inactive: -0.018 | inactive: -0.02 | inactive: 0.015 | inactive: -0.02 | inactive: -0.056 | inactive: -0.071 | inactive: 0.072 |  | inactive: -0.068 | inactive: -0.011 | inactive: -0.036 | inactive: 0.011 | inactive: 0.044 | inactive: 0.003
TRMT2A (UniProt Q8IZ69) | inactive: 0 | inactive: 0.069 | inactive: -0.124 | inactive: 0.07 | inactive: -0.016 | inactive: -0.009 | inactive: -0.09 | inactive: -0.028 | inactive: 0.005 | inactive: -0.098 | inactive: 0.013 | inactive: -0.146 | inactive: 0.085 |  | inactive: -0.026 | inactive: 0.031 | inactive: -0.011 | inactive: 0.039 | inactive: 0.034 | inactive: -0.142

2 records drawn at random from the list so far, as already listed:
Target | log2 fold change (erlotinib) | log2 fold change [1] | log2 fold change [2] | log2 fold change [3] | log2 fold change [4] | log2 fold change [5] | log2 fold change [6] | log2 fold change (IRAK-1-4 Inhibitor I) | log2 fold change (ibrutinib) | log2 fold change [7] | log2 fold change [8] | log2 fold change [9] | log2 fold change (pinometostat) | log2 fold change [10] | log2 fold change [11] | log2 fold change [12] | log2 fold change [13] | log2 fold change (ralimetinib) | log2 fold change [14] | log2 fold change [15]
TRIM44 (UniProt Q96DX7) | inactive: 0.022 | inactive: 0.1 |  | inactive: 0.025 | inactive: 0.028 | inactive: 0.087 | inactive: -0.037 | inactive: 0.031 | inactive: 0.018 | inactive: 0.067 |  | inactive: -0.06 | inactive: -0.01 |  | inactive: -0.061 | inactive: -0.023 | inactive: -0.014 | inactive: -0.094 | inactive: 0.061 | active: -0.327
TRIM21 (UniProt P19474) | inactive: 0.041 | inactive: -0.047 |  | inactive: 0.214 | inactive: -0.076 | inactive: 0.111 | inactive: 0.213 |  | inactive: -0.238 | inactive: 0.044 |  | inactive: -0.147 |  | inactive: 0.106 |  | inactive: -0.038 | inactive: 0.013 |  |  | inactive: 0.129
